Measurements reported in PubChem BioAssay AID602196 (INSERM, 2012)

Aim: 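Genes whose knock-down alters cisplatin killing of lung cancer cells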
Cells: human A549 lung cancer cells
Knock-down reagent: siRNA pair against human genes
Timing: 48 h transfection before cisplatin; time from cisplatin to read-out not stated
Treatment: cisplatin at a dose killing half of control-siRNA cells; exact dose and duration not given
Read-out: 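Shift in cisplatin death relative to control siRNA, from -50 (all cells die) to +50 (no cells die); siRNAs harmful on their own scored 0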
Direction: two-siRNA summed score (-2 to +2): higher = both siRNAs protect from cisplatin killing; -2 means both sensitise; mean protection from cisplatin (shift in death) and protection from cisplatin (shift in death), siRNA C and protection from cisplatin (shift in death), siRNA D: higher = protection from cisplatin killing
Rule for the call: 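siRNAs harmful alone (LDH or WST-1) get 0; others get +1 for less and -1 for more cisplatin killing; genes are active when the two siRNAs give the same sign, summing to ±2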
Calls: active = both siRNAs shift cisplatin killing the same way; inactive = no consistent shift, or siRNA harmful alone
The deposit covers about 23,000 reagents; this is a part drawn at random. 455 of them (2%) were called active. 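Active includes both protection and sensitisation; some change values fall well beyond the stated -50 to +50 range.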 Entries without a mark were called inactive. The numbers tell different reagents against one gene apart. Not given: the amount of reagent.

no.	gene	reagent	two-siRNA summed score (-2 to +2)	mean protection from cisplatin (shift in death) (%)	protection from cisplatin (shift in death), siRNA C (%)	protection from cisplatin (shift in death), siRNA D (%)
1	COA6 (cytochrome c oxidase assembly factor 6)	1	0	11.9	5	18.8
2	AHCYL1 (adenosylhomocysteinase like 1)	1	-1	-17.5	-35.9	0.9
3	ARPC4 (actin related protein 2/3 complex subunit 4)	1	0	-6.8	-1.8	-11.9
4	ATP5MC3 (ATP synthase membrane subunit c locus 3)	1	0	16.5	36.4	-3.4
5	SPRY4 (sprouty RTK signaling antagonist 4)	1	0	1.9	1.6	2.1
6	OR2C3 (olfactory receptor family 2 subfamily C member 3)	1	0	2	-16.3	20.3
7	CENPV (centromere protein V)	1	1	12.4	19.2	5.5
8	ZC3H6 (zinc finger CCCH-type containing 6)	1	0	8.4	10.8	6
9	SEC16B (SEC16 homolog B, endoplasmic reticulum export factor)	1	0	-4.6	2.8	-11.9
10	LOC440770	1	1	8.7	10	7.4
11	SPIB (Spi-B transcription factor)	1	0	-1.5	-12.3	9.3
12	SLC10A6	1	0	-5.8	7.7	-19.2
13	GATA4 (GATA binding protein 4)	1	1	10.8	14.4	7.2
14	LOC123688	1	0	23.5	22.7	24.3
15	LOC388337	1	-1	-3.1	-15.1	8.9
16	PHOX2A (paired like homeobox 2A)	1	-1	-2.5	4.9	-10
17	VTI1A (vesicle transport through interaction with t-SNAREs 1A)	1	0	6.5	3.7	9.2
18	VTI1A (vesicle transport through interaction with t-SNAREs 1A)	2	1	13.5	33.2	-6.2
19	MATN4 (matrilin 4)	1	0	2.5	1	4.1
20	LOC126037	1	0	4.1	-6.5	14.7
21	MCAM (melanoma cell adhesion molecule)	1	0	3.5	9.9	-2.9
22	DCTN6 (dynactin subunit 6)	1	1	17.4	20.8	13.9
23	LOC342918	1	0	10.7	17.3	4.1
24	LOC441365	1	0	3.2	0.7	5.8
25	LIN28A (lin-28 RNA binding posttranscriptional regulator A)	1	0	11.6	9.8	13.4
26	TBKBP1 (TBK1 binding protein 1)	1	1	-0.9	-14.7	12.8
27	CETN1 (centrin 1)	1	0	12.3	5.2	19.3
28	LOC401884	1	1	11.9	10.7	13.1
29	SGCA (sarcoglycan alpha)	1	-1	-6.6	-18.1	4.8
30	KRAS (KRas proto-oncogene, GTPase)	1	-1	-8.6	-3.4	-13.8
31	RPS21 (ribosomal protein S21)	1	0	14.5	2.8	26.2
32	KIF17 (kinesin family member 17)	1	0	2.5	14.5	-9.6
33	GARRE1 (granule associated Rac and RHOG effector 1)	1	0	6.5	7.5	5.5
34	COG1 (component of oligomeric golgi complex 1)	1	0	8.1	12.5	3.7
35	SLC5A3	1	0	2.5	-10.5	15.5
36	MXD3 (MAX dimerization protein 3)	1	0	-1.9	-3.5	-0.4
37	FAM225A (family with sequence similarity 225 member A)	1	0	15.5	-2.6	33.6
38	EFCAB7 (EF-hand calcium binding domain 7)	1	0	5.2	9.4	0.9
39	CSF3R (colony stimulating factor 3 receptor)	1	-2 (active)	-16.1	-14.5	-17.8
40	DTX4 (deltex E3 ubiquitin ligase 4)	1	0	-20.5	8.6	-49.7
41	EIF3K (eukaryotic translation initiation factor 3 subunit K)	1	0	1.3	-4.6	7.3
42	LATS1 (large tumor suppressor kinase 1)	1	2 (active)	21.9	17.9	25.8
43	LOC390913	1	2 (active)	19	24.5	13.4
44	ZDHHC6 (zDHHC palmitoyltransferase 6)	1	0	-0.5	3.4	-4.4
45	EPB41L5 (erythrocyte membrane protein band 4.1 like 5)	1	0	-1.5	10.3	-13.4
46	KRTAP10-11 (keratin associated protein 10-11)	1	0	6.9	4.2	9.6
47	SFXN1 (sideroflexin 1)	1	0	0.3	10	-9.4
48	HNRNPR (heterogeneous nuclear ribonucleoprotein R)	1	0	12.8	18.3	7.3
49	LOC440991	1	0	10.2	29.9	-9.5
50	SAMTOR (S-adenosylmethionine sensor upstream of mTORC1)	1	0	2	-1.6	5.6
51	NUDT16L2P (nudix hydrolase 16 like 2, pseudogene)	1	0	11.9	19.9	3.9
52	HNRNPAB (heterogeneous nuclear ribonucleoprotein A/B)	1	0	6.1	5.2	6.9
53	SHD (Src homology 2 domain containing transforming protein D)	1	-1	2.3	31.8	-27.3
54	WIPI2 (WD repeat domain, phosphoinositide interacting 2)	1	1	0.8	18.8	-17.1
55	SMG1P2 (SMG1 pseudogene 2)	1	0	13.5	15.6	11.3
56	LOC340148	1	1	9.5	5.9	13.1
57	KIAA1217	1	0	10.6	13.7	7.6

Called active, of those listed so far:
gene	reagent	two-siRNA summed score (-2 to +2)	mean protection from cisplatin (shift in death) (%)	protection from cisplatin (shift in death), siRNA C (%)	protection from cisplatin (shift in death), siRNA D (%)
CSF3R (colony stimulating factor 3 receptor)	1	-2 (active)	-16.1	-14.5	-17.8
LATS1 (large tumor suppressor kinase 1)	1	2 (active)	21.9	17.9	25.8
LOC390913	1	2 (active)	19	24.5	13.4
